From publication PMC4063770 come the findings set out here.

By UniProt entry, the sequences of proteins in these tests, tags left out.
UniProt O70218: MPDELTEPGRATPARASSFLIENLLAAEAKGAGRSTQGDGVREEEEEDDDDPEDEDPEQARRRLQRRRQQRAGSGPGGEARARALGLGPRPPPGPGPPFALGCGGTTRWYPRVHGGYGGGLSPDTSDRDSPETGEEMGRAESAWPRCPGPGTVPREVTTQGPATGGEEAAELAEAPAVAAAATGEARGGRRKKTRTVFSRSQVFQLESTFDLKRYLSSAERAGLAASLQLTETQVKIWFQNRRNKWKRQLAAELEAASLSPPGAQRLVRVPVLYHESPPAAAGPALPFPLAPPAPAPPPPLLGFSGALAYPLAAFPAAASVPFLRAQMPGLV

These are yes or no findings as the source states them, for the method shown. Binding seen in cells or lysates may run through a third protein. Some results given as binding are weak or reduced against the parent protein; the word gives no strength.

The target in experiment [1] is HMX1 fused to Renilla luciferase (RLUC-HMX1) and HMX1 fused to GFP^2 (GFP^2-HMX1) (UniProt O70218). Description: co-IP; HEK 293T lysate, 200 ug protein; IP with anti-Renilla luciferase antibody overnight at 4 C, protein G plus agarose; Western blot with anti-GFP antibody. (In western blotting, separated proteins are transferred to a membrane and probed.)
Experiment [2] has the same target. Description: FRET or BRET; BRET^2 in HEK 293T cells co-transfected with the RLUC fusion (donor) and increasing amounts of the GFP^2 fusion (acceptor); 200'000 cells in DPBS per well, coelenterazine 400A (DeepBlueC) 5 uM, 410 nm and 515 nm filters. In general terms: BRET reads energy transfer from a luciferase to a nearby fluorophore.

Consider “HMX1 fused to Renilla luciferase (RLUC-HMX1) and HMX1 fused to GFP^2 (GFP^2-HMX1) (from UniProt O70218 1-332)”, for which the binding result in experiment [1] and in experiment [2] was “binds” each time.
